Results as given in the supplement of paper PMC12067093, “Discovery and optimisation of a covalent ligand for TRIM25 and its application to targeted protein ubiquitination” (Chemical Science, 2025).
The list shows a part of the results.

Compound: Cc1cc(ccc1-c1ccccc1)C(=O)N1CCCN(CC1)C(=O)CCl [compound 10]
Assay: probe-labelled cysteine peptide fold change vs DMSO (competition) (log2 fold change); higher = less target engagement (more negative = stronger competition)
Settings: THP-1, incubation time: 4 h
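Also: competitive profiling in live THP-1 cells: cysteine peptides tagged with an iodoacetamide desthiobiotin (IA-DTB) probe, intensity after compound treatment relative to DMSO-treated cells.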

| Target | probe-labelled cysteine peptide fold change (10 µM) | probe-labelled cysteine peptide fold change (50 µM) |
| --- | --- | --- |
| DIAPH3_Q9NSV4_249_VIQCLK (UniProt Q9NSV4) | 0.00188 | -0.232 |
| DIS3L_Q8TF46_203_AAHELCDSILQSR (UniProt Q8TF46) | 0.0785 | 0.0964 |
| DHX15_O43143_190_GVACTQPR (UniProt O43143) | 0.296 | 0.68 |
| DIAPH2_O60879_884_TTLLHFIADICEEK (UniProt O60879) | 0.136 | 0.0196 |
| DLGAP4_Q9Y2H0_736_SLPDCTPHPNSISIDAGPR (UniProt Q9Y2H0) | -0.469 | -0.0948 |
| DIS3L2_Q8IYB7_570_LAFTLDHETGLPQGCHIYEYR (UniProt Q8IYB7) | 0.0387 | 0.229 |
| DIAPH1_O60610_964_LQFSEQVENIKPEIVSVTAACEELRK (UniProt O60610) | -0.0186 | 0.346 |
| DHX40_Q8IX18_225_LSAFFGNCPIFDIPGR (UniProt Q8IX18) | 0.0073 | 0.294 |
| DIEXF_Q68CQ4_717_ATNRGEEATWTCTVLYSK (UniProt Q68CQ4) | 0.161 | 0.124 |
| DHX29_Q7Z478_1245_LACIVETAQGK (UniProt Q7Z478) | 0.0041 | 0.378 |
| DNAJC13_O75165_1432_ESPLLPAATELAFHTVNCSALNAEELRR (UniProt O75165) | 0.104 | 0.0448 |
| DHX29_Q7Z478_659_NSLCGYQIR (UniProt Q7Z478) | -0.0082 | -0.081 |
| DHX9_Q08211_1029_SSVNCPFSSQDMK (UniProt Q08211) | -5.51e-05 | -0.148 |
| DIS3_Q9Y2L1_549_IDMVPELLSSNLCSLK (UniProt Q9Y2L1) | 0.389 | 0.0881 |
| DNMT1_P26358_1125_SQACEPSEPEIEIK (UniProt P26358) | -0.485 | -0.443 |
| DNASE2_O00115_327_GGGTLCAQLPALWK (UniProt O00115) | -0.108 | 0.06 |
| DKC1_O60832_74_TTHYTPLACGSNPLKR (UniProt O60832) | -0.0751 | -0.244 |
| DIP2A_Q14689_6_GCPLEAAPLPAEVR (UniProt Q14689) | -0.41 | -2.19 |
| DICER1_Q9UPY3_1063_LHCLLTAEELR (UniProt Q9UPY3) | 0.133 | 0.115 |
| DLGAP5_Q15398_381_LPCPLGPLTVWHEEHVLNK (UniProt Q15398) | -0.0628 | -0.373 |
| DHX30_Q7L2E3_673_GEPGGILCFLPGWQEIK (UniProt Q7L2E3) | 0.357 | 0.169 |

| Target | probe-labelled cysteine peptide fold change (10 µM) | probe-labelled cysteine peptide fold change (50 µM) |
| --- | --- | --- |
| DHX57_Q6P158_598_VANIICTQPR (UniProt Q6P158) | -0.173 | 0.00446 |
| DNM2_P50570_86_TEHAEFLHCK (UniProt P50570) | -0.165 | 0.129 |
| DHX15_O43143_644_QNHESVQWCYDNFINYR (UniProt O43143) | 0.24 | 0.295 |
| DIP2A_Q14689_934_FLEGTLHPCNVLMCPHTCVTNLPK (UniProt Q14689) | 0.192 | 0.136 |
| DNAJC16_Q9Y2G8_709_YFCLFKPQK (UniProt Q9Y2G8) | -0.261 | 0.111 |
| DNMT1_P26358_1339_ACQLSVVVDDK (UniProt P26358) | 0.0583 | -0.641 |
| DHX8_Q14562_1096_HKLDVVSCGK (UniProt Q14562) | 0.0253 | -0.0736 |
| DNAJA1_P31689_271_RGEDLFMCMDIQLVEALCGFQK (UniProt P31689) | 0.0341 | 0.385 |
| DHRS9_Q9BPW9_60_GFHVIAACLTESGSTALK (UniProt Q9BPW9) | 0.185 | 0.3 |
| DNAJC21_Q5F1R6_3_CHYEALGVR (UniProt Q5F1R6) | -0.00951 | -0.0917 |
| DNMT1_P26358_691_CPNMAMK (UniProt P26358) | -0.0408 | -0.52 |
| DNMT1_P26358_420_HGHLCPIDTGLIEK (UniProt P26358) | -0.227 | -0.325 |
| DIS3L_Q8TF46_88_GIIFMQTACQAVQHQR (UniProt Q8TF46) | -0.183 | 0.0776 |
| DIAPH3_Q9NSV4_663_IRPHEMTENCFWIK (UniProt Q9NSV4) | -0.0626 | -0.468 |
| DIAPH1_O60610_164_DMPLLSCLESLR (UniProt O60610) | -0.0035 | -0.0498 |
| DNAJC7_Q99615_58_AIDMCPK (UniProt Q99615) | 0.162 | 0.0415 |
| DNAJC7_Q99615_7_AAAAECDVVMAATEPELLDDQEAK (UniProt Q99615) | 0.116 | 0.335 |
| DNAJB1_P25685_267_EALCGCTVNVPTLDGR (UniProt P25685) | 0.328 | 0.116 |
| DNM1L_O00429_644_DCEVIER (UniProt O00429) | 0.0314 | 0.289 |
| DNAJC7_Q99615_7_AAAAECDVVMAATEPELLDDQEAKR (UniProt Q99615) | -0.244 | -0.523 |
| DHX38_Q92620_1028_NNNYSTIWCNDHFIHAK (UniProt Q92620) | -0.113 | 0.169 |

| Target | probe-labelled cysteine peptide fold change (10 µM) | probe-labelled cysteine peptide fold change (50 µM) |
| --- | --- | --- |
| DLG4_P78352_562_FGSCVPHTTRPK (UniProt P78352) | -0.119 | -0.126 |
| DNAAF5_Q86Y56_365_ILPALCHDITDWVVGTR (UniProt Q86Y56) | 0.00399 | -0.141 |
| DKC1_O60832_131_VTGCLIVCIER (UniProt O60832) | -0.0378 | 0.266 |
| DIS3L2_Q8IYB7_396_DLDDALSCK (UniProt Q8IYB7) | 0.0468 | 0.51 |
| DHX33_Q9H6R0_518_FHCTEEILTIVSLLSVDSVLHNPPSR (UniProt Q9H6R0) | -0.109 | -0.689 |
| DHX9_Q08211_773_VRPGFCFHLCSR (UniProt Q08211) | -0.117 | -0.00629 |
| DNM1L_O00429_470_LHDAIVEVVTCLLRK (UniProt O00429) | 0.0188 | -0.542 |
| DNM1L_O00429_361_YIETSELCGGAR (UniProt O00429) | -0.306 | -0.295 |
| DNAJC21_Q5F1R6_487_VPAEPQTMSVLISCTTCHSEFPSR (UniProt Q5F1R6) | -0.257 | -0.199 |
| DHX30_Q7L2E3_286_LSTLTLLWPCPMTFVAK (UniProt Q7L2E3) | -0.213 | -0.0493 |
| DNAJC2_Q99543_26_GTAITHALTSASTLCQVEPVGR (UniProt Q99543) | -0.0409 | -0.201 |
| DHX30_Q7L2E3_346_RPCTIQVPEPILR (UniProt Q7L2E3) | -0.647 | -1.7 |
| DNAJA3_Q96EY1_289+292_GSIIISPCVVCR (UniProt Q96EY1) | -0.0622 | -0.0782 |
| DNMT1_P26358_1339_ACQLSVVVDDKK (UniProt P26358) | -0.133 | -1.16 |
| DIAPH2_O60879_862_INFLCK (UniProt O60879) | 0.119 | 0.0816 |
| DHX36_Q9H2U1_284_AESCGSGNSTGYQIR (UniProt Q9H2U1) | -0.0931 | -0.0293 |
| DIDO1_Q9BTC0_296_CEEWFHGDCVGISEAR (UniProt Q9BTC0) | 0.0807 | 0.114 |
| DICER1_Q9UPY3_1641_DSEYGCLK (UniProt Q9UPY3) | -0.337 | -0.124 |
| DNASE1L1_P49184_224_ASTHCTYDR (UniProt P49184) | -0.121 | 0.00658 |
| DHX15_O43143_774_IAPQYYDMSNFPQCEAK (UniProt O43143) | -0.0924 | 0.0483 |
| DNMT1_P26358_686_QACQER (UniProt P26358) | -0.624 | 0.658 |

| Target | probe-labelled cysteine peptide fold change (10 µM) | probe-labelled cysteine peptide fold change (50 µM) |
| --- | --- | --- |
| DNAJA1_P31689_177_IHQIGPGMVQQIQSVCMECQGHGER (UniProt P31689) | 0.00655 | 0.253 |
| DISC1_Q9NRI5_844_EAAASCMTAGVHEAQA (UniProt Q9NRI5) | -0.223 | -0.323 |
| DIDO1_Q9BTC0_1079_AYPVSGCFDYLSEDLPDTIHIGGR (UniProt Q9BTC0) | -0.256 | 0.362 |
| DHX29_Q7Z478_1019_VPLEELCLHIMK (UniProt Q7Z478) | 0.0517 | -0.0374 |
| DNAAF2_Q9NVR5_673_LQECSNSDQLQGK (UniProt Q9NVR5) | -0.0102 | 0.284 |
| DMAC2_Q9NW81_194_GLACLHHLQNLR (UniProt Q9NW81) | -0.215 | 0.722 |
| DHX30_Q7L2E3_118_QAAAAACQLFK (UniProt Q7L2E3) | -0.141 | -0.108 |
| DIS3_Q9Y2L1_549_RIDMVPELLSSNLCSLK (UniProt Q9Y2L1) | 0.117 | -0.21 |
| DMXL1_Q9Y485_551_SIMMYACTK (UniProt Q9Y485) | -0.0984 | -0.789 |
| DHX33_Q9H6R0_518_FHCTEEILTIVSLLSVDSVLHNPPSRR (UniProt Q9H6R0) | -0.0649 | 0.00512 |
| DNM2_P50570_607_QIELACDSQEDVDSWK (UniProt P50570) | -0.211 | 0.0551 |
| DIAPH1_O60610_964_LQFSEQVENIKPEIVSVTAACEELR (UniProt O60610) | -0.0771 | 0.26 |
| DNAJA2_O60884_280_IGLVEALCGFQFTFK (UniProt O60884) | 0.42 | 0.439 |
| DIAPH1_O60610_1227_KAGCAVTSLLASELTK (UniProt O60610) | -0.218 | -1.27 |
| DLD_P09622_477_VLGAHILGPGAGEMVNEAALALEYGASCEDIAR (UniProt P09622) | 0.198 | 0.0789 |
| DHX9_Q08211_773+777_VRPGFCFHLCSR (UniProt Q08211) | -0.269 | -0.13 |
| DHX36_Q9H2U1_781_DYCWEYFLSSNTLQMLHNMK (UniProt Q9H2U1) | 0.211 | 0.0914 |
| DHX37_Q8IY37_486_MLPAGGILVFLTGQAEVHALCR (UniProt Q8IY37) | 0.185 | 0.636 |
| DNAJA3_Q96EY1_253+256_VQHCHYCGGSGMETINTGPFVMR (UniProt Q96EY1) | 0.0818 | -0.196 |
